Data from PubChem BioAssay AID1471 (National Center for Advancing Translational Sciences (NCATS), 2008).
The campaign covered roughly 230,000 compounds. About 310 (0.13%) were called active. The shares of active, inactive and inconclusive entries below differ from those in the screen. Calls come from the whole dose curve; as a rule, active = well fitted activation curve with a large enough effect; inconclusive = small, poorly fitted or top-dose-only effect; inactive = no such curve, though single readings can be large or run the other way. Potencies of inconclusive entries are doubtful fits and often do not repeat. Residues, ends and D or L forms follow the SMILES beside them. *: point of attachment. Boc = CC(C)(C)OC(=O)*; Bn = c1ccc(C*)cc1

assay: qHTS Multiplex Assay to Identify Dual Action Probes in a Cell Model of Huntington: Cytoprotection (ATP); conditions: PC12 HTT-Q103 induced, ATP luminescence, 40 h; cytoprotection (ATP increase): at 56.4 µM (top of the series) unless noted; note: nearly all actives have a fitted effect of over 45% in size;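 for cytoprotection (ATP increase): toxic huntingtin expression switched on by the ecdysone agonist tebufenozide; % of control where 0% means no effect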
Outline: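 Cells were plated at 1500 per well in phenol red-free DMEM with 5% equine and 5% calf serum. Tebufenozide (100 nM final) and compounds were added, then ATPlite reagent, and luminescence was read.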
Potency is the fitted concentration of half-maximal effect.

SMILES	Potency	cytoprotection (ATP increase)
COc1ccc(NC(=O)N2CCCC3(CCN(C(C)=O)CC3)C2)cc1	inconclusive: 0.0063 µM [activator, full curve, poor fit]	
Cc1cccc(/C=C(\c2nc3ccccc3[nH]2)S(=O)(=O)c2ccccc2)c1	inconclusive: 6.31 µM [activator, single point]	
COc1ccc(Nc2nccc(OC)c2C#N)cc1	inconclusive: 1.26 µM [activator, single point]	
CC(C)=CCNc1ncnc2c1c(C#N)cn2[C@H]1O[C@@H](CO)[C@@H](O)[C@@H]1O		inactive: -39% [at 10 µM]
N#Cc1ccc(CS(=O)(=O)c2nnnn2-c2ccccc2)cc1	inconclusive: 2.51 µM [activator, single point]	
CCCn1c(SCC(=O)c2cc(C)n(-c3ccc4c(c3)OCO4)c2C)n[nH]c1=O	active: 3.55 µM	
Cc1cc(NC(=O)c2ccc3c(c2)OCO3)ccc1NC(=O)c1ccco1	inconclusive: 1.26 µM [activator, single point]	
COC(=O)[C@H](CCSC)NC(=O)N1CCC(C)CC1	inconclusive: 6.31 µM [activator, single point]	
O=c1cc(CN2CCN(Cc3ccccc3)CC2)c2cc3c(cc2o1)CCC3		inactive: 6.26% [at 10 µM]
CCN(CC)CCOC(=O)[C@@H](Cc1cccc2ccccc12)C[C@@H]1CCCO1	inconclusive: 1 µM [activator, full curve]	
Nc1[nH]ncc1-c1ccccc1	inconclusive: 1.26 µM [activator, single point]	
CN(C(=S)NC(=O)c1ccc(Br)o1)c1ccccc1	inconclusive: 0.0891 µM [activator, partial curve, poor fit]	
O=C(CSc1nnc(COc2cccc3cccnc23)o1)N1CCc2ccccc21	inactive	
CCN(CC)S(=O)(=O)c1ccc(C)c(NC(=S)NNC(=O)C2CC2)c1	inconclusive: 0.708 µM [activator, single point]	
NS(=O)(=O)c1ccc(N2C(=O)C3CC=CCC3C2=O)cc1 (stereo not given)	inconclusive: 5.62 µM [activator, single point]	
Nc1cnn([C@@H]2O[C@H](CO)[C@@H](O)[C@H]2O)c(=O)n1	inconclusive: 10 µM [activator, single point]	
CN1CCN(c2ncncc2-c2ccccc2Cl)CC1	inactive	
CC(C)Cn1nnnc1S(=O)(=O)Cc1cccc(C#N)c1	inconclusive: 35.5 µM [activator, single point]	
COc1cc(NC(=O)COC(=O)[C@@H]2CCCN2S(=O)(=O)c2ccc(Cl)cc2)cc(OC)c1OC	inconclusive: 0.316 µM [activator, full curve, poor fit]	
CS(=O)(=O)N(CC(=O)N1CCN(Cc2ccc3c(c2)OCO3)CC1)Cc1ccc(Cl)cc1	inconclusive: 22.4 µM [activator, single point]	
CN1CCN(C2=Nc3ccccc3Oc3ccc(Cl)cc32)CC1	inconclusive: 0.0501 µM [activator, full curve, poor fit]	
Cc1nn(-c2ccccn2)c2c1C(=O)C(Br)CC2 (stereo not given)	inconclusive: 2.51 µM [activator, partial curve]	

SMILES	Potency	cytoprotection (ATP increase)
COC(=O)CSC(C)C(=O)Nc1nnc(C(C)C)s1 (stereo not given)	active: 3.16 µM	
CC(=O)c1ccc(NC(=S)Nc2ccn(Cc3ccc(Br)cc3)n2)cc1	inconclusive: 2.82 µM [activator, single point]	
Cc1c(C#N)c(NC(=O)CCl)n(Cc2ccccc2)c1C	inactive	
O=C(Nc1ccccn1)c1csc2c1CCCC2		inactive: -14.6% [at 10 µM]
COc1ccccc1S(=O)(=O)CC(O)COc1ccc(F)cc1Cl (stereo not given)	inactive	
COc1cccc(C(=O)COC(=O)CCC(=O)NC2CCCCC2)c1	inconclusive: 0.0071 µM [activator, full curve, poor fit]	
CN(C)S(=O)(=O)c1ccc2c(c1)nc(CCC(=O)NCc1ccc(Cl)cc1)n2C	active: 0.631 µM	
CCc1ccc(C(=O)c2cncc(Br)c2)cc1	inactive	
Nc1ccc(-n2nnnc2CN2CCOCC2)cc1		inactive: 7.06% [at 10 µM]
COc1ccc2[nH]c3c(=O)n4c(nc3c2c1)SCC4	inconclusive: 0.0891 µM [activator, full curve, poor fit]	
Cc1ccccc1-c1nnn(CC(=O)Nc2cccc(S(N)(=O)=O)c2)n1	inconclusive: 5.62 µM [activator, single point]	
COc1ccc(/C=N/NC(=O)C(Cc2c[nH]c3ccccc23)NC(=O)OCC(C)C)cc1[N+](=O)[O-] (stereo not given)	inactive	
Cc1cccn2cc(CSc3nnc(Nc4ccc(C(C)C)cc4)s3)nc12	inconclusive: 3.55 µM [activator, single point]	
Cc1c(Cn2ccnc2)c2ccccc2n1CCC(=O)O	inconclusive: 0.891 µM [activator, full curve, poor fit]	
COc1ccc([N+](=O)[O-])cc1N(CC(=O)NCc1ccco1)S(C)(=O)=O	inconclusive: 0.316 µM [activator, full curve, poor fit]	
CO/N=C(\C(=O)N[C@@H]1C(=O)N2C(C(=O)[O-])=C(C[N+]3(C)CCCC3)CS[C@@H]12)c1csc(N)n1	inconclusive: 3.98 µM [activator, partial curve]	
COC(=O)c1ccccc1NC(=O)C1CCCO1 (stereo not given)	inconclusive: 0.794 µM [activator, partial curve]	
Cc1ccc(C2CC(=O)Oc3cc(C)c(Br)c(C)c32)cc1 (stereo not given)	inconclusive: 4.47 µM [activator, single point]	
O=C(COc1ccc(Cl)cc1)NCCSc1ccccc1	inconclusive: 0.398 µM [activator, full curve, poor fit]	
COc1cccc(C(=O)CSc2nc3ccccc3n2CC(=O)N(C(C)C)C(C)C)c1		inactive: 2.2% [at 10 µM]
COc1ccc(COC(=O)N/N=C2/C[C@@H](O)[C@@H](O)[C@@H]3[C@@H]4C(=O)N(C[C@@H]5CCCO5)C(=O)[C@H]4CC[C@@H]23)cc1	inconclusive: 0.562 µM [activator, single point]	
CN=C1S/C(=C\c2cc(C)n(-c3ccccc3F)c2C)C(=O)N1C		inactive: -15.1% [at 10 µM]

SMILES	Potency	cytoprotection (ATP increase)
O=C(c1ccncc1)N1CCC2(CCCN(Cc3nccs3)C2)CC1	inconclusive: 17.8 µM [activator, partial curve, poor fit]	
CCOc1ccc(-c2c(C(=O)N/N=C/c3ccc(OC(C)C)cc3)nnn2-c2nonc2N)cc1	inconclusive: 0.891 µM [activator, single point]	
CC1=C(c2ccccc2)[N+](=O)C2(CCCC2)N1[O-]	inactive	
O=C(CCS(=O)(=O)c1ccccc1)Nc1ccccc1N1CCOCC1	inconclusive: 2.24 µM [activator, single point]	
CC(=O)Nc1ccc(NC(=O)CSc2ccc3nnc(CCNC(=O)c4ccccc4)n3n2)cc1	inconclusive: 5.62 µM [activator, single point]	
CCOC(=O)CCN1C(=O)[C@H]2[C@H]3[C@H](O)[C@H](O)C/C(=N/OCc4ccccc4)[C@H]3CC[C@@H]2C1=O	inconclusive: 0.0794 µM [activator, single point]	
CC1Cc2ccccc2N1c1ncnc(N)c1[N+](=O)[O-] (stereo not given)	inconclusive: 2.82 µM [activator, single point]	
CC(C)CC(NC(=O)C(CC(C)C)NC(=O)C(Cc1ccc(OCc2ccccc2)cc1)NC(=O)OC(C)(C)C)C(N)=O (stereo not drawn) (Boc-Tyr(Bn)-Leu-Leu-NH2; configuration not given here)	inconclusive: 1.26 µM [activator, single point]	
COC(=O)C/C=C/[C@@H](C)[C@H](OC)c1c(Br)ccc2c1OCO2	inconclusive: 3.98 µM [activator, single point]	
NNCCc1ccccc1	inconclusive: 2 µM [activator, partial curve]	
C=CCn1c(SCC(N)=O)nnc1-c1cnccn1	inconclusive: 4.47 µM [activator, single point]	
CC1CCCC/C1=N\NC(=S)Nc1cccnc1 (stereo not given)	inconclusive: 3.55 µM [activator, partial curve]	
CCC(=O)n1nc(-c2ccco2)nc1SCc1ccccc1	inactive	
COc1ccc(-c2ccc(N)[n+](CCCC(=O)O)n2)cc1	inconclusive: 0.794 µM [activator, partial curve]	
O=C(/C=C/c1ccc(O)c(O)c1)OC(Cc1ccc(O)c(O)c1)C(=O)O (stereo not given)	inconclusive: 0.1 µM [activator, partial curve]	
CCCCC/C=C\C/C=C\C/C=C\C/C=C\CCCCCC(=O)O	inconclusive: 1.12 µM [activator, partial curve]	
COc1cccc(Cn2c(=O)c(-c3ccccc3)nc3cnc(OC)nc32)c1	inconclusive: 20 µM [activator, single point]	
Cc1ccc(S(=O)(=O)c2c(C)nn(C(C)(C)C)c2OC(=O)c2ccc(Br)o2)cc1	inconclusive: 14.1 µM [activator, single point]	
Cn1c(C(N)=O)cnc1Sc1ncc(C(F)(F)F)cc1Cl	inconclusive: 3.16 µM [activator, single point]	
CC(C)(C)NC(=O)CN(C(=O)CS(=O)CC(=O)Nc1ccc(F)cc1)c1ccc2c(c1)OCCO2 (stereo not given)	inconclusive: 1 µM [activator, partial curve]	
CC1(C)NC(=O)N(CC(O)COc2ccccc2[N+](=O)[O-])C1=O (stereo not given)	inconclusive: 5.62 µM [activator, single point]	

4 entries picked at random from those above:
SMILES	Potency	cytoprotection (ATP increase)
Cn1c(C(N)=O)cnc1Sc1ncc(C(F)(F)F)cc1Cl	inconclusive: 3.16 µM [activator, single point]	
CCCCC/C=C\C/C=C\C/C=C\C/C=C\CCCCCC(=O)O	inconclusive: 1.12 µM [activator, partial curve]	
NNCCc1ccccc1	inconclusive: 2 µM [activator, partial curve]	
CC1Cc2ccccc2N1c1ncnc(N)c1[N+](=O)[O-] (stereo not given)	inconclusive: 2.82 µM [activator, single point]	
